# Paper PMC3499388
# These are yes or no findings as the source states them, for the method shown. In cells and extracts the contact can be indirect. Some results given as binding are weak or reduced against the parent protein; the word gives no strength.
# T1: murine BMI1-2Py (murine) (UniProt P25916)
# T1 sequence: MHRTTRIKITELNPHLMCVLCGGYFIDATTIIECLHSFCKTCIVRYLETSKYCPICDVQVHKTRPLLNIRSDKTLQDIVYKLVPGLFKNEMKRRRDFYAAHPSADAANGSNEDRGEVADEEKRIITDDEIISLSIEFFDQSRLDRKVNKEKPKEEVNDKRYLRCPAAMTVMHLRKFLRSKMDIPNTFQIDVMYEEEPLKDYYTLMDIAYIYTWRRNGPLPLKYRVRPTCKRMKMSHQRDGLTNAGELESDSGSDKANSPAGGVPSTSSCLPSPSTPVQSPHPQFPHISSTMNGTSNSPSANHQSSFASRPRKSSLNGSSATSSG
# Target: T1, murine BMI1-2Py (murine)
# Assay: co-IP; U2-OS cells with or without BMI1-2Py, serum-starved, then stimulated with mitogens (FCS/TPA) or selenite, also after p38 inhibitor; cells cross-linked or lysed directly in ELB buffer (50 mM HEPES pH 7.0, 250 mM NaCl, 5 mM EDTA, 0.1% NP-40); PRC1-directed IP on protein G beads, immunoblot
binder,measurement,value
"CBX4 (protein, UniProt O00257 1-560) MELPAVGEHVFAVESIEKKRIRKGRVEYLVKWRGWSPKYNTWEPEENILDPRLLIAFQNRERQEQLMGYRKRGPKPKPLVVQVPTFARRSNVLTGLQDSSTDNRAKLDLGAQGKGQGHQYELNSKKHHQYQPHSKERAGKPPPPGKSGKYYYQLNSKKHHPYQPDPKMYDLQYQGGHKEAPSPTCPDLGAKSHPPDKWAQGAGAKGYLGAVKPLAGAAGAPGKGSEKGPPNGMMPAPKEAVTGNGIGGKMKIVKNKNKNGRIVIVMSKYMENGMQAVKIKSGEVAEGEARSPSHKKRAADERHPPADRTFKKAAGAEEKKVEAPPKRREEEVSGVSDPQPQDAGSRKLSPTKEAFGEQPLQLTTKPDLLAWDPARNTHPPSHHPHPHPHHHHHHHHHHHHAVGLNLSHVRKRCLSETHGEREPCKKRLTARSISTPTCLGGSPAAERPADLPPAAALPQPEVILLDSDLDEPIDLRCVKTRSEAGEPPSSLQVKPETPASAAVAVAAAAAPTTTAEKPPAEAQDEPAESLSEFKPFFGNIIITDVTANCLTVTFKEYVTV",binding,binds
